Results deposited as PubChem BioAssay AID686943 (Drosophila RNAi Screening Center, 2013).
The deposit covers about 23,000 reagents; this is an unselected part of those that have a named target and a result. 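Extra replicates exist only for a retested subset of genes; insulin dose and duration not given; both raised and lowered dpERK matter.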 The numbers tell different reagents against one gene apart. Further read-outs or replicates are left out here. Not given: the amount of reagent, the time to read-out.

- Aim: 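Knockdowns that increase or decrease active ERK after insulin receptor stimulation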 (primary screen)
- Cell system: Drosophila S2R+ haemocyte-like cells expressing YFP-tagged ERK (Rolled)
- Knock-down reagent: long dsRNA against Drosophila genes
- Conditions: insulin stimulation versus unstimulated cells; dose and duration not given
- Measurement: 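Antibody staining for doubly phosphorylated ERK divided by ERK-YFP signal, as plate z-scores, in insulin-treated and untreated cells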
- Direction: replicate 1, z-score of dpERK with insulin and replicate 2, z-score of dpERK with insulin: higher = more active ERK per ERK-YFP after insulin

{"target": "dsx-c73A", "reagent no.": 1, "replicate 1, z-score of dpERK with insulin": -0.02, "replicate 2, z-score of dpERK with insulin": 0.23}
{"target": "dsx-c73A", "reagent no.": 2, "replicate 1, z-score of dpERK with insulin": 0.59, "replicate 2, z-score of dpERK with insulin": 0.29}
{"target": "dsx-c73A", "reagent no.": 3, "replicate 1, z-score of dpERK with insulin": 0.83, "replicate 2, z-score of dpERK with insulin": 0.56}
{"target": "CG42615", "reagent no.": 1, "replicate 1, z-score of dpERK with insulin": 1.33, "replicate 2, z-score of dpERK with insulin": 0.88}
{"target": "ArfGAP3", "reagent no.": 1, "replicate 1, z-score of dpERK with insulin": -0.47, "replicate 2, z-score of dpERK with insulin": -0.21}
{"target": "CG30076", "reagent no.": 1, "replicate 1, z-score of dpERK with insulin": -0.3, "replicate 2, z-score of dpERK with insulin": -0.56}
{"target": "D1", "reagent no.": 1, "replicate 1, z-score of dpERK with insulin": -0.57, "replicate 2, z-score of dpERK with insulin": -0.17}
{"target": "Klf15", "reagent no.": 1, "replicate 1, z-score of dpERK with insulin": 0.14, "replicate 2, z-score of dpERK with insulin": 0.08}
{"target": "RpL21", "reagent no.": 1, "replicate 1, z-score of dpERK with insulin": -0.06, "replicate 2, z-score of dpERK with insulin": -1.71}
{"target": "Polr2G", "reagent no.": 1, "replicate 1, z-score of dpERK with insulin": 3.59, "replicate 2, z-score of dpERK with insulin": 2.81}
{"target": "TTLL6B", "reagent no.": 1, "replicate 1, z-score of dpERK with insulin": 0.08, "replicate 2, z-score of dpERK with insulin": -0.1}

Copied from above (2 entries):
{"target": "RpL21", "reagent no.": 1, "replicate 1, z-score of dpERK with insulin": -0.06, "replicate 2, z-score of dpERK with insulin": -1.71}
{"target": "Polr2G", "reagent no.": 1, "replicate 1, z-score of dpERK with insulin": 3.59, "replicate 2, z-score of dpERK with insulin": 2.81}

The results go on.
{"target": "CG3078", "reagent no.": 1, "replicate 1, z-score of dpERK with insulin": -1.85, "replicate 2, z-score of dpERK with insulin": 0.16}
{"target": "sll", "reagent no.": 1, "replicate 1, z-score of dpERK with insulin": -0.38, "replicate 2, z-score of dpERK with insulin": -0.28}
{"target": "CG3552", "reagent no.": 1, "replicate 1, z-score of dpERK with insulin": -0.38, "replicate 2, z-score of dpERK with insulin": -0.64}
{"target": "Nxf3", "reagent no.": 1, "replicate 1, z-score of dpERK with insulin": -0.5, "replicate 2, z-score of dpERK with insulin": -0.15}
{"target": "CoRest", "reagent no.": 1, "replicate 1, z-score of dpERK with insulin": -3.05, "replicate 2, z-score of dpERK with insulin": -3.21}
{"target": "CoRest", "reagent no.": 2, "replicate 1, z-score of dpERK with insulin": 0.2, "replicate 2, z-score of dpERK with insulin": 0.52}
{"target": "CoRest", "reagent no.": 3, "replicate 1, z-score of dpERK with insulin": -0.77, "replicate 2, z-score of dpERK with insulin": -1.55}
{"target": "Cnep1r2", "reagent no.": 1, "replicate 1, z-score of dpERK with insulin": 0.29, "replicate 2, z-score of dpERK with insulin": 0.02}
{"target": "Cpsf6", "reagent no.": 1, "replicate 1, z-score of dpERK with insulin": -2.52, "replicate 2, z-score of dpERK with insulin": -2.26}
{"target": "Cpr62Ba", "reagent no.": 1, "replicate 1, z-score of dpERK with insulin": -0.42, "replicate 2, z-score of dpERK with insulin": -0.04}
